Measured data: PubChem BioAssay AID1259254 (NCATS, 2017)

- Purpose: 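Genome-wide screen for genes that prevent DNA re-replication in cancer cells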 (primary screen)
- Cells: human HCT116 colorectal cancer cells
- Reagent: single siRNA against human genes
- Duration: 3 days
- Measurement: 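Nuclei stained with Hoechst and imaged; cell-cycle phase assigned by DNA content; G2 share scaled per plate, non-targeting siRNA 0%, GMNN siRNA 100%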
- Direction: G2 robust z-score and G2 cells, % of GMNN control: higher = more G2 cells, more excess DNA replication; raw share of cells in G2: higher = larger share of cells with G2 DNA content
- Hit rule: 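Active siRNAs have a G2 robust z of 5 or more median absolute deviations over the median, which in these data means about 38% or higher of GMNN control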
This is one part, drawn at random, of about 59,000 reagents. Of all reagents, about 1,550 (2.6%) got an active call. 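G2 share is only a proxy for re-replication; each gene was hit by three separate siRNAs, and active genes were retested.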 Raw values vary from plate to plate and are shown uncorrected. The numbers tell different reagents against one gene apart. Not given: the amount of reagent.

Gene,siRNA no.,G2 robust z-score,"G2 cells, % of GMNN control",raw share of cells in G2 (%),activity call
LINC02817,1,-0.288,0.943,4.15,inactive
LINC02817,2,-0.217,1.44,4.09,inactive
LINC02817,3,0.367,5.55,7.09,inactive
ARRDC1,1,-0.478,-0.393,3.92,inactive
ARRDC1,2,1.31,12.2,6.83,inactive
ARRDC1,3,0.0575,3.37,3.99,inactive
CHRNA3,1,3.42,27,15.1,inactive
CHRNA3,2,-0.0626,2.53,5.64,inactive
CHRNA3,3,-0.516,-0.662,4.12,inactive
ZNF358,1,-0.863,-3.11,2.44,inactive
ZNF358,2,5.53,41.9,17.5,active
ZNF358,3,2.38,19.7,10,inactive
SNRPEP2,1,0.868,9.07,7.11,inactive
SNRPEP2,2,0.625,7.37,6.44,inactive
SNRPEP2,3,1.43,13,10.2,inactive
SARM1,1,-0.541,-0.838,3.25,inactive
SARM1,2,-0.831,-2.88,4.71,inactive
SARM1,3,2.02,17.2,10.5,inactive
DBR1,1,-1.12,-4.93,1.91,inactive
DBR1,2,6.11,46,21.2,active
DBR1,3,-0.127,2.07,6.89,inactive
DRC9,1,-0.529,-0.754,3.86,inactive
DRC9,2,1.8,15.6,8.09,inactive
DRC9,3,-0.137,2,3.01,inactive
SMIM3,1,-0.457,-0.247,3.98,inactive
SMIM3,2,-0.332,0.631,3.2,inactive
SMIM3,3,1.35,12.5,6.89,inactive
LSP1P3,1,-0.553,-0.92,2.84,inactive
LSP1P3,2,-0.784,-2.55,3.09,inactive
LSP1P3,3,2.94,23.6,11.2,inactive
KCTD5,1,-0.452,-0.21,5.21,inactive
KCTD5,2,2.03,17.2,10.6,inactive
KCTD5,3,-0.266,1.1,4.8,inactive
ZFHX3,1,0.266,4.84,6.37,inactive
ZFHX3,2,-0.581,-1.12,4.67,inactive
ZFHX3,3,-0.468,-0.327,3.87,inactive
ZNF22-AS1,1,0.0968,3.65,4.9,inactive
ZNF22-AS1,2,0.0987,3.66,4.38,inactive
ZNF22-AS1,3,-0.136,2.01,3.84,inactive
POGLUT3,1,0.125,3.85,5.12,inactive
POGLUT3,2,-0.363,0.412,3.04,inactive
POGLUT3,3,-0.319,0.725,3.32,inactive
PTGES2,1,1.95,16.7,11,inactive
PTGES2,2,-0.649,-1.6,4.76,inactive
PTGES2,3,1.25,11.7,8.44,inactive
ARFGAP1,1,-0.625,-1.43,5.8,inactive
ARFGAP1,2,-1.12,-4.88,2.69,inactive
ARFGAP1,3,1.18,11.3,9.03,inactive
KCNJ1,1,-0.475,-0.378,4.23,inactive
KCNJ1,2,-0.843,-2.96,4.21,inactive
KCNJ1,3,0.165,4.13,6.18,inactive
LOC400682,1,-0.281,0.987,4.17,inactive
LOC400682,2,0.653,7.56,6.52,inactive
LOC400682,3,-0.792,-2.61,3.71,inactive
FRG2B,1,4.02,31.3,15.7,inactive
FRG2B,2,-0.0375,2.7,4.44,inactive
FRG2B,3,4.82,36.9,15.6,inactive
SESN2,1,0.294,5.03,5.78,inactive
SESN2,2,1.21,11.5,6.86,inactive
SESN2,3,-0.491,-0.488,2.26,inactive
VIT,1,0.836,8.85,8.74,inactive
VIT,2,0.0594,3.39,5.56,inactive
VIT,3,0.0636,3.41,4.59,inactive
REPS1,1,0.281,4.94,7.97,inactive
REPS1,2,0.248,4.72,6.26,inactive
REPS1,3,0.352,5.44,7.3,inactive
RGS2,1,0.604,7.21,7.46,inactive
RGS2,2,0.14,3.95,5.46,inactive
RGS2,3,2.97,23.8,13.8,inactive
WSCD1,1,1.58,14.1,9.72,inactive
WSCD1,2,-0.192,1.61,4.64,inactive
WSCD1,3,0.896,9.27,6.54,inactive
PROM2,1,0.295,5.05,4.83,inactive
PROM2,2,-0.172,1.76,3.78,inactive
PROM2,3,0.923,9.46,6.84,inactive
COG4,1,0.463,6.23,6.25,inactive
COG4,2,1.44,13.1,8.27,inactive
COG4,3,1.33,12.4,11.8,inactive
AKT1,1,0.109,3.73,6.84,inactive
AKT1,2,-0.857,-3.06,4.38,inactive
AKT1,3,0.183,4.25,5.52,inactive
ATG2B,1,-0.677,-1.8,3.83,inactive
ATG2B,2,0.739,8.16,7.52,inactive
ATG2B,3,0.188,4.29,4.51,inactive
ADCY4,1,-1.47,-7.36,2.45,inactive
ADCY4,2,-0.646,-1.58,4.12,inactive
ADCY4,3,-0.497,-0.528,4.48,inactive

Not a retest: 14 of the entries above.
Gene,siRNA no.,G2 robust z-score,"G2 cells, % of GMNN control",raw share of cells in G2 (%),activity call
PTGES2,1,1.95,16.7,11,inactive
PTGES2,2,-0.649,-1.6,4.76,inactive
PTGES2,3,1.25,11.7,8.44,inactive
ARFGAP1,1,-0.625,-1.43,5.8,inactive
ARFGAP1,2,-1.12,-4.88,2.69,inactive
ARFGAP1,3,1.18,11.3,9.03,inactive
KCNJ1,1,-0.475,-0.378,4.23,inactive
KCNJ1,2,-0.843,-2.96,4.21,inactive
KCNJ1,3,0.165,4.13,6.18,inactive
LOC400682,1,-0.281,0.987,4.17,inactive
LOC400682,2,0.653,7.56,6.52,inactive
LOC400682,3,-0.792,-2.61,3.71,inactive
FRG2B,1,4.02,31.3,15.7,inactive
FRG2B,2,-0.0375,2.7,4.44,inactive
